The other results are listed elsewhere or left out.
Molecular target: OsWRKY34 (Oryza sativa, UniProt Q0JBA9 1-250)
Experiment: protein-binding microarray (RPBM); PBS, 2% BSA, 51.3 ng/ul salmon testes DNA, 50 uM zinc acetate, 200 nM TF, 25 C, 1 h; high values mean tight binding
Settings: protein: recombinant; tags: N-terminal polyhistidine and DsRed monomer fusion (pET32a); label: CyDye5-dUTP incorporated in the synthesized complementary strand; 3' TTTTT single-stranded linker to array surface; dsDNA, one strand shown
Method in brief: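 Binding signal is reported as fluorescence intensity per feature (arbitrary units) from an Axon 4000B scanner. Incubation used 200 nM of each Ni–NTA-purified, N-terminally polyhistidine- and DsRed-fused transcription factor from E. coli BL21-CodonPlus on a double-stranded custom Agilent array for 1 h at 25 °C, with 50 µM zinc acetate in the buffer, followed by washing.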

By UniProt entry, the sequences of proteins in these tests, tags left out.
UniProt Q0JBA9, entry or part of it: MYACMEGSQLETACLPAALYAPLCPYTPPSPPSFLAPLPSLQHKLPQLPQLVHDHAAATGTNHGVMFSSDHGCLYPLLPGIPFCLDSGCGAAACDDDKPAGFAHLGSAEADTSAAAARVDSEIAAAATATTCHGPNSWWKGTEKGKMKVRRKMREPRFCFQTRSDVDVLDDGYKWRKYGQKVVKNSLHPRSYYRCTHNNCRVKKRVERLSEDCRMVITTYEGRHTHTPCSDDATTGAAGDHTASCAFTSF

Row | Sequence | binding signal
1 | CACCTTACTCGCGCCGCGCGCGCCGCCGTCGACGGCAGCCCGGAGTCACCTAGTGCAG | 8230 fluorescence intensity (a.u.)
2 | AACTTAACAGCTCAAGCTTAATTCTGGGCCAAATTCACCACGGAGTCACCTAGTGCAG | 9090 fluorescence intensity (a.u.)
3 | TTCGCTCCGTTTTCATCCCTATTTGCAAGTACTGTACATTCGGAGTCACCTAGTGCAG | 9640 fluorescence intensity (a.u.)
4 | CTTTTTGTTTTCTTGATTATAGCATCCCAGAGTTTATGTTCGGAGTCACCTAGTGCAG | 9320 fluorescence intensity (a.u.)
5 | TAACTCATCCCTCTTGTTTTCTATACACATATTTTCAAACCGGAGTCACCTAGTGCAG | 8470 fluorescence intensity (a.u.)
6 | CTTCGCTCCACCCGTCTACGTCTGTTTGTTGTATTCCCCTCGGAGTCACCTAGTGCAG | 11900 ± 175 fluorescence intensity (a.u.)
7 | AAACACAGCCTTATTTTGGGACAGAGCGAGTATTGACTTTCGGAGTCACCTAGTGCAG | 8400 fluorescence intensity (a.u.)
8 | TCCCACACTGGGTTTTGACGTTCTGTTGATTCCTCTTATTCGGAGTCACCTAGTGCAG | 12600 fluorescence intensity (a.u.)
9 | TATTACACATACCGGTTTTGCTAGATGATTGGCTATCATCCGGAGTCACCTAGTGCAG | 9340 fluorescence intensity (a.u.)
10 | TCAGTGGACTCGGTTCTGTTTTTTTGTCACTCCACTGGCACGGAGTCACCTAGTGCAG | 9610 fluorescence intensity (a.u.)
11 | GGGATACAGTGGTCTTATGTCACTGTTTCTAAGGTATACCCGGAGTCACCTAGTGCAG | 8190 fluorescence intensity (a.u.)
12 | AAACTTTCAACTTTTTTATCGCATCGTTTCAATTTCAACCCGGAGTCACCTAGTGCAG | 8150 fluorescence intensity (a.u.)
13 | CCCGTTTGAGCCACACCATTCTCATCTATTTAAATGCCTTCGGAGTCACCTAGTGCAG | 11800 fluorescence intensity (a.u.)
14 | GGGTTTGTCTTTTTTCCTTTTTTTTTTTTTTTTTTTCGGACGGAGTCACCTAGTGCAG | 13000 fluorescence intensity (a.u.)
15 | TCACCGCTCCTGGCCAACCCTCACCTACCGGTGCGCTCGACGGAGTCACCTAGTGCAG | 8310 fluorescence intensity (a.u.)
16 | GCCGCCGCCGCCGCCACTCCGCCCCGCCATGGCCGCTCTCCGGAGTCACCTAGTGCAG | 8490 fluorescence intensity (a.u.)
17 | AACCGATGTGCTCTCAGTTGCCCACGGCTGCTCAACTGGACGGAGTCACCTAGTGCAG | 8130 fluorescence intensity (a.u.)
18 | TCCAATTCCATCGCTTTTCTGTTCTTCCATCCTCGTCGTGCGGAGTCACCTAGTGCAG | 9600 fluorescence intensity (a.u.)
19 | ATAATGCAAAATTGCAATTTGCAACCCCACCATGCCATTTCGGAGTCACCTAGTGCAG | 8850 fluorescence intensity (a.u.)
20 | TCCCTACCGTCCATCCGCGCGATTTCATTCACCAACGCATCGGAGTCACCTAGTGCAG | 8300 fluorescence intensity (a.u.)
21 | ATGTCATTTGTGTATGAGTCGGTTTTCAAGTTCGTTCGCTCGGAGTCACCTAGTGCAG | 10100 fluorescence intensity (a.u.)

Copied from the list.
Entry of TAACTCATCCCTCTTGTTTTCTATACACATATTTTCAAACCGGAGTCACCTAGTGCAG under binding signal: 8470 fluorescence intensity (a.u.)
Entry of GGGTTTGTCTTTTTTCCTTTTTTTTTTTTTTTTTTTCGGACGGAGTCACCTAGTGCAG under binding signal: 13000 fluorescence intensity (a.u.)
Entry of TTCGCTCCGTTTTCATCCCTATTTGCAAGTACTGTACATTCGGAGTCACCTAGTGCAG under binding signal: 9640 fluorescence intensity (a.u.)

Later entries:

Row | Sequence | binding signal
22 | ACTTCTTAGGCTCCGTTTAGCTTCTTAGGTTGGTTTTTTTCGGAGTCACCTAGTGCAG | 10700 fluorescence intensity (a.u.)
23 | ATGTTTCCGTATTCATGTCCGATCAAATTCGATTCTTATTCGGAGTCACCTAGTGCAG | 10800 fluorescence intensity (a.u.)
24 | CAGCGCCCACGTCATCACCGGTCGGAGGGGAAAAACATCTCGGAGTCACCTAGTGCAG | 9470 fluorescence intensity (a.u.)
25 | ATCGTCACCTCTCGAACTATTTTCTTGTTGCTTGTTGTAACGGAGTCACCTAGTGCAG | 10300 fluorescence intensity (a.u.)
26 | TGACAGCTACCGTCTTCTCGTCTGACCCGAGTCCGAGTCGCGGAGTCACCTAGTGCAG | 8650 fluorescence intensity (a.u.)
27 | ACACCTTCAATCGCTCTCTCATGAATTAACCGAACAAGACCGGAGTCACCTAGTGCAG | 9340 fluorescence intensity (a.u.)
28 | TTTTGCGAGGTGGTCGTCTTGTTCCGGGGCACCGTCACGCCGGAGTCACCTAGTGCAG | 8250 fluorescence intensity (a.u.)
29 | TACTGGCCGATAAGTACGCTCACCACTTCAACGTCGTCCACGGAGTCACCTAGTGCAG | 10300 fluorescence intensity (a.u.)
30 | ATGACCGATCCTACGATTGAAAAAGTTGACTGCGATATCTCGGAGTCACCTAGTGCAG | 8050 fluorescence intensity (a.u.)
31 | GAATCTTGTCACTCTCTCATCAATCTACACCCAATTTCCACGGAGTCACCTAGTGCAG | 9010 fluorescence intensity (a.u.)
32 | TTACGTGGGCACACTGTCTCACTTTGTTTTGTCATTGTTCCGGAGTCACCTAGTGCAG | 8640 fluorescence intensity (a.u.)
33 | CATGCGAAAAAAAGTCAACGGCGTCATCTATTAAAAAATGCGGAGTCACCTAGTGCAG | 10500 fluorescence intensity (a.u.)
34 | TCGCAGGGCAGGAAGCTGTCGTAGCAGACGGGGTGGGGATCGGAGTCACCTAGTGCAG | 10300 fluorescence intensity (a.u.)
35 | GCTTCATTTTTCTTGGCCATAACTTTGGCAACTTAGCCACCGGAGTCACCTAGTGCAG | 9160 fluorescence intensity (a.u.)
36 | ACAGAGCCGGCGCCGTCATTCTTTTCTCCACGTCGCTGCACGGAGTCACCTAGTGCAG | 8670 fluorescence intensity (a.u.)
37 | CCTCGTCAATCCTCTACATCCTGCGTTTCTTCCCCGTATACGGAGTCACCTAGTGCAG | 12800 fluorescence intensity (a.u.)
38 | CCTCCCTCCATCCCGCTTTTGGCCATTTCGGCATCCACTTCGGAGTCACCTAGTGCAG | 9130 fluorescence intensity (a.u.)
39 | GTTGCCTTTTTTAGAGCTCTGTATCACCGCTTCTTGTGCGCGGAGTCACCTAGTGCAG | 11700 fluorescence intensity (a.u.)
40 | ATGTGCTATTATGTGTTGCGAGCACTAGTGCCTAACGTGACGGAGTCACCTAGTGCAG | 8850 fluorescence intensity (a.u.)
41 | TAAGTGATTTACTGCTAGCTTGTACCTTTTCTGTTTGTAACGGAGTCACCTAGTGCAG | 9040 fluorescence intensity (a.u.)
42 | GGCCACGGCGGGTTAGGGAGGTGGGTGGTGCCGCCGGTCGCGGAGTCACCTAGTGCAG | 11500 fluorescence intensity (a.u.)

— article PMC7819943, “Rice protein-binding microarrays: a tool to detect cis-acting elements near promoter regions in rice”
